Assay results taken from paper PMC11368183.
Numbering of substitutions follows the chain as printed. These are yes or no findings as the source states them, for the method shown. In cells and extracts the contact can be indirect. Some entries that bind do so weakly or less than the wild type. For some assays here: Tags and fused reporters may be left off the sequences shown.

The chains behind the UniProt entries cited, without tags or fusion partners. Where a name states a change or a piece, a line headed by the entry shows the natural chain unless it says otherwise. A line that says so, or that is headed by a name, gives the form on record, which may keep a tag or linker.
UniProt Q9VQU9: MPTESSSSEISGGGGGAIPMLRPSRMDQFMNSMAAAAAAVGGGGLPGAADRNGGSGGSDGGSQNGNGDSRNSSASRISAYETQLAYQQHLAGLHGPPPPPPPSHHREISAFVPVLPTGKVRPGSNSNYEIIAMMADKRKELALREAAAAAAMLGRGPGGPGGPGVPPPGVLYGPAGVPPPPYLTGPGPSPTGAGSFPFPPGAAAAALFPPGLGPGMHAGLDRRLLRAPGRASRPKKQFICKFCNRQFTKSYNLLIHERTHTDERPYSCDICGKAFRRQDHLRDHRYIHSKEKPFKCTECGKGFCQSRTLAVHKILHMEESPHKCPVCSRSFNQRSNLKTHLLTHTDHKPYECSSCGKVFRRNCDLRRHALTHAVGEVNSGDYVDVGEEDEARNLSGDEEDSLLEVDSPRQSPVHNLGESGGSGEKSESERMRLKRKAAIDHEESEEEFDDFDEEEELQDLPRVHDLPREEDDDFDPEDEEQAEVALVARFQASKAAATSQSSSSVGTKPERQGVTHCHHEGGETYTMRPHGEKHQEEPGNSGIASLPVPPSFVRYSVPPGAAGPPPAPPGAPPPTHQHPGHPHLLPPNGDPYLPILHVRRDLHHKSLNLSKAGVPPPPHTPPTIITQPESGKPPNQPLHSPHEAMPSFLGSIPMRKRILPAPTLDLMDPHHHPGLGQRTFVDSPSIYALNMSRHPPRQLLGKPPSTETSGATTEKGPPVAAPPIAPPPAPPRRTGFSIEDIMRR
HA-Bowl^122–373K137R (Q9VQU9, form named): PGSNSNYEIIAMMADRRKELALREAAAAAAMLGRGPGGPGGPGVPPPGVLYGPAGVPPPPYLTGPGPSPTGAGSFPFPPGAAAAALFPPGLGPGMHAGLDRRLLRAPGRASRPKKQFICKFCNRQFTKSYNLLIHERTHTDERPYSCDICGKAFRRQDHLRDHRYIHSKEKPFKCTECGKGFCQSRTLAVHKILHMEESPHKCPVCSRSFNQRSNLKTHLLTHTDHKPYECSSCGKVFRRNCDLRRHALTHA
UniProt P51592: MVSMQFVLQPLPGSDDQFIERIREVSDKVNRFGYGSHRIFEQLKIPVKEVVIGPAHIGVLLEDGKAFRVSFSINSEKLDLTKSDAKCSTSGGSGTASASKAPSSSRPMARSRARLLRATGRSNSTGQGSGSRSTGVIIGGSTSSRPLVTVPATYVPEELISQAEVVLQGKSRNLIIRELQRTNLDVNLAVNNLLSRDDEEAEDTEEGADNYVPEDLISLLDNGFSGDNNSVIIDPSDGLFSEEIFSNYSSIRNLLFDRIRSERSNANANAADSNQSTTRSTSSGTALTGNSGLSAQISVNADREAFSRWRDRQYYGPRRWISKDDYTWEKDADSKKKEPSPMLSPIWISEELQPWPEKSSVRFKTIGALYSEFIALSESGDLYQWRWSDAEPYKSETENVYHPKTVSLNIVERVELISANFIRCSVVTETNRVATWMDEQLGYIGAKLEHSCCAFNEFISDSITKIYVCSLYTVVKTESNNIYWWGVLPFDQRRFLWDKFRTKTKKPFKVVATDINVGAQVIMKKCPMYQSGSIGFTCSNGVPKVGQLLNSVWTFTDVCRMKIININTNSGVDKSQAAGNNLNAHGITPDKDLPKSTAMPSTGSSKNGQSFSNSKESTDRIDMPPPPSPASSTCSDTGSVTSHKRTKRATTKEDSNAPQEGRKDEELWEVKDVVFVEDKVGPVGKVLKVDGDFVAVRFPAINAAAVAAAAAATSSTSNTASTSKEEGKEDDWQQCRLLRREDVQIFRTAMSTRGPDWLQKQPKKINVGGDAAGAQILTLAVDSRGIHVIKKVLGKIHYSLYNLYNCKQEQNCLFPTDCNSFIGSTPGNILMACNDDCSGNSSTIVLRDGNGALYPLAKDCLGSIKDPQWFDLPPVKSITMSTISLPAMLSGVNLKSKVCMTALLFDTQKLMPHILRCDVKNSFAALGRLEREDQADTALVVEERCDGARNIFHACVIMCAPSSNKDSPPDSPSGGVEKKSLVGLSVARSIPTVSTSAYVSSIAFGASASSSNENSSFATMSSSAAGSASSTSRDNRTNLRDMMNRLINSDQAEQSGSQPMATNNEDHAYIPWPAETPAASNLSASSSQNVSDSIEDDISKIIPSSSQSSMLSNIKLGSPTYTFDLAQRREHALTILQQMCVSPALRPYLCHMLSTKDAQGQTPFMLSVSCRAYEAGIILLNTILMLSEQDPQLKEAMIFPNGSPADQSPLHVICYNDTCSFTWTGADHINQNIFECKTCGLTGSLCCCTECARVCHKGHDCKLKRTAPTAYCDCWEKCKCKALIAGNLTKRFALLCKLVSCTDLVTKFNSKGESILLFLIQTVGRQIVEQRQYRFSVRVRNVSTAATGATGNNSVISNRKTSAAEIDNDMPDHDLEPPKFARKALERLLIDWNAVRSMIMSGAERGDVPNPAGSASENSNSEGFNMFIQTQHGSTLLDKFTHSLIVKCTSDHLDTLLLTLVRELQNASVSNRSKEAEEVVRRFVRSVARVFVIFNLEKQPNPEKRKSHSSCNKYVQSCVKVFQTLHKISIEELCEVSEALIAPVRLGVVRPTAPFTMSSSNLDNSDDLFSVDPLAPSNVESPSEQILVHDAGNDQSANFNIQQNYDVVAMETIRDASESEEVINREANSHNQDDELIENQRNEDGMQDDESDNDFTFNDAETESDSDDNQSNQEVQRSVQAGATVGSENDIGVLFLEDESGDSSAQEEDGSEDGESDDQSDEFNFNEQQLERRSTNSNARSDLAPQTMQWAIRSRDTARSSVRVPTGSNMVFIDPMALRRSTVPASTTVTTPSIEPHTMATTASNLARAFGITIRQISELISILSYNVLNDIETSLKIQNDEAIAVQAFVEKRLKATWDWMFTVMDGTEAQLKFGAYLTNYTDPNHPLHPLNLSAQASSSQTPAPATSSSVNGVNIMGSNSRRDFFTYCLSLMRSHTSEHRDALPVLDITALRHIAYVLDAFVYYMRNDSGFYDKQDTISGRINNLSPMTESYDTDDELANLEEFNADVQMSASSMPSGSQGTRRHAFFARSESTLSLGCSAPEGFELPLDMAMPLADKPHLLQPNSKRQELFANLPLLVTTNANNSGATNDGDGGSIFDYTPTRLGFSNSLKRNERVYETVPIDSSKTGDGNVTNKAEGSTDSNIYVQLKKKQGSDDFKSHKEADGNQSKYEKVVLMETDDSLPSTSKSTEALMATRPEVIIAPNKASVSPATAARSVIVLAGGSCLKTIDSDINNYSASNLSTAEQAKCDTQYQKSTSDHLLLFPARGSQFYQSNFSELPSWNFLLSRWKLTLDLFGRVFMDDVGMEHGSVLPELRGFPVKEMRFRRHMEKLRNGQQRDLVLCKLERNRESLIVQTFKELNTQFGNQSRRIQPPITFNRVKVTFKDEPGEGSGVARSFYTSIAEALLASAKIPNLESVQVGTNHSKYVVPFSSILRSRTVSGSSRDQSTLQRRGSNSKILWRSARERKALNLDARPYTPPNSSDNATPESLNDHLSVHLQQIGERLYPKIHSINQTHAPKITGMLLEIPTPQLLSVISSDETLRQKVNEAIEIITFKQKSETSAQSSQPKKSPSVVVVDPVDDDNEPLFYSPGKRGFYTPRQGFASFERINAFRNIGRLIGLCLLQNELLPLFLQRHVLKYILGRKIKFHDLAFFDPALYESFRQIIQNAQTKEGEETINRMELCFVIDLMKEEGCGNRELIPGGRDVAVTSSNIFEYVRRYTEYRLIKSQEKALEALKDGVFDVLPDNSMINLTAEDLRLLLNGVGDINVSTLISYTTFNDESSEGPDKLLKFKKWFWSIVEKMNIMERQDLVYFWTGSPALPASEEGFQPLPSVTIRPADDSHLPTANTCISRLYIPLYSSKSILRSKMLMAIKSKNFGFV

Assays:
[1] = target: T1, Lin^A24 mutant protein (F713S) (Drosophila) (UniProt Q9V4Z9); test: co-IP; S2R+ cells expressing Lin, Lin^A24 or Lin^A25 with HA-Bowl^122–373K137R (Figure 4E) or with Hyd (Figure 4F)
T1 sequence: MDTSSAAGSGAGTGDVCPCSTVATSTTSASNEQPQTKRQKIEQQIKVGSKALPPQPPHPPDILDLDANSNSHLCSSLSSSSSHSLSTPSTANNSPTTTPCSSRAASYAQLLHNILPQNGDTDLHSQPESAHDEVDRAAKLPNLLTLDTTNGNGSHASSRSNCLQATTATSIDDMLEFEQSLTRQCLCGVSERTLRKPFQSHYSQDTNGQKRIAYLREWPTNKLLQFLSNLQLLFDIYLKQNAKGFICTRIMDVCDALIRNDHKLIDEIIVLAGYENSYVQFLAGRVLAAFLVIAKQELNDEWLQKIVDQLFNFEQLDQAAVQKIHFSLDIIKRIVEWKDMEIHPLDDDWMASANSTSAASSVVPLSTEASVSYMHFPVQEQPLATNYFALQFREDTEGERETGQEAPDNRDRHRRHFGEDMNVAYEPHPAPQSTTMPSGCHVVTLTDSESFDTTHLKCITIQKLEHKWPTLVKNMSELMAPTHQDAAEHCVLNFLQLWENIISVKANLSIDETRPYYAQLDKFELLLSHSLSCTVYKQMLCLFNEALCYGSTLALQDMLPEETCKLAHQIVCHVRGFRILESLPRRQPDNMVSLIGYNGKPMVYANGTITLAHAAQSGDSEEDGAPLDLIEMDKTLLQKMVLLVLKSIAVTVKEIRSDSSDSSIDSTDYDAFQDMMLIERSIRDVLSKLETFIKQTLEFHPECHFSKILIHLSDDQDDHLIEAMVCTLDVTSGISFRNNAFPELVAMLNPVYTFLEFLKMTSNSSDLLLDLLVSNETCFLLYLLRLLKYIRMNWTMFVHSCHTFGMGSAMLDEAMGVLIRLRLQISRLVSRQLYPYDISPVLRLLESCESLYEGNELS

[2] = target: T2, FLAG-Lin (Lines) (Drosophila) (UniProt Q9V4Z9); test: as above
T2 sequence: T1 sequence with S713F

[3] = target: T2, FLAG-Lin (Lines) (Drosophila); test: co-IP; S2R+ cells expressing FLAG-Lin with HA-Bowl and/or Hyd-HA; cells treated with 10 μM PS-341 for 4 h before harvesting (Figure 4C)
[4] = target: T3, Lin^A25 mutant protein (N793I) (Drosophila) (UniProt Q9V4Z9); test: co-IP; S2R+ cells expressing Lin, Lin^A24 or Lin^A25 with HA-Bowl^122–373K137R (Figure 4E) or with Hyd (Figure 4F)
T3 sequence: T1 sequence with S713F, N793I

[5] = target: T2, FLAG-Lin (Lines) (Drosophila); test: co-IP; S2R+ cells expressing Lin and Bowl without or with coexpressed Drm; cells treated with PS-341 (Figure 4G)

| binding [1] | binding [2] | binding [3] | binding [4] | binding [5] | Substance |
| --- | --- | --- | --- | --- | --- |
| binds | binds |  |  |  | HA-Bowl^122–373K137R (from UniProt Q9VQU9 122-373) (domain or fragment) |
| binds | binds | binds | binds |  | Hyd-HA (hyperplastic disc) (from UniProt P51592 1-2885) (enzyme) |
|  |  | binds |  | binds | HA-Bowl (from UniProt Q9VQU9 1-744) |
